According to US7468384B2, “Microbicidal composition” (Rohm and Haas Company, priority 2004, dated 2008):

Legend:
[1] = tested on: Aspergillus niger (A. niger—ATCC 16404); assay: Synergy test, microtiter plate high resolution MIC assay, mold; type: cell-based; details: ATCC16404, 96 h, read-out: Qb: end-point activity (MIC) of second component in the mixture (alone, QB, where Qa = 0)
Source text: (§1) One measure of synergism is the industrially accepted method described by Kull, F. C.; Eisman, P. C.; Sylwestrowicz, H. D. and Mayer, R. L., in Applied Microbiology 9:538-541 (1961), using the ratio determined by the formula: Qa/QA+Qb/QB=Synergy Index (“SI”) wherein: • QA=concentration of compound A (first component) in ppm, acting alone, which produced an end point (MIC of Compound A). • Qa=concentration of compound A in ppm, in the mixture, which produced an end point. • QB=concentration of compound B (second component) in ppm, acting alone, which produced an end point (MIC of Compound B). • Qb=concentration of compound B in ppm, in the mixture, which produced an end point. […]
(§2) Synergy tests were conducted using standard microtiter plate assays with media designed for optimal growth of the test microorganism. […] High resolution MICs were determined by adding varying amounts of microbicide to one column of a microtitre plate and doing subsequent ten-fold dilutions using an automated liquid handling system to obtain a series of endpoints ranging from 2 ppm to 10,000 ppm active ingredient. […]
(§3) For BIT combinations, the synergy of the combinations of the present invention was determined against a bacterium, Pseudomonas aeruginosa (P. aeruginosa—ATCC #15442), a yeast, Candida albicans (C. albicans—ATCC 10231), and a mold, Aspergillus niger (A. niger—ATCC 16404). […]

[2] = tested on: Pseudomonas aeruginosa (P. aeruginosa—ATCC #15442); assay: Synergy test, microtiter plate high resolution MIC assay, bacterium; type: cell-based; details: ATCC15442, 48 h, read-out: Qb: end-point activity (MIC) of second component in the mixture (alone, QB, where Qa = 0)
Source text: as §1, §2, §3

Work on `CC(C)(C)CC(C)(C)c1ccc(OCCOCC[N+](C)(C)Cc2ccccc2)cc1` [Benzethonium chloride] yielded an MIC [1] of 6 µg/mL and an MIC [2] of 40 µg/mL.
